Reference: patent US20170224662A1 (priority 2016, published 2017)
Where two headings read alike, the source gives them in different places. At least one read-out could not be matched to a standard name with certainty.

Format: physicochemical
Details: 1 mg/mL
Description: CPMM was evaluated for compatibility with excipients that are suitable for IV administration. A buffer solution (phosphate at pH 3) was selected as the diluent for excipient screening studies. […] CPMM was solubilized in each excipient solution at 1 mg/mL.
While CPMM completely dissolved in the control sample within several minutes, many of the excipient solutions required overnight storage at 5° C. to solubilize the drug.
Each excipient sample solution was placed on a two-week stability study at 25° C./60% relative humidity and 40° C./75% relative humidity, and analyzed for CPMM purity at t=0, 1, and 2 weeks by comparing individual samples to their respective excipient blank solution.

For `COC(=O)C1(OC(=O)c2cncn2[C@H](C)c2ccccc2)CC1` [CPMM, 1-(methoxycarbonyl)cyclopropyl-1-[(1R)-1-phenylethyl]-1H-imidazole-5-carboxylate], the “Solubilization during solution preparation” value (all other excipient samples, many required overnight storage at 5° C.) was “slow CPMM solubilization” and the “Solubilization during solution preparation” value (the two cyclodextrin solutions and all surfactant solutions) was “readily dissolved”.
